Measurements reported in PubChem BioAssay AID1259424 (University of Nebraska Medical Center, 2018)

Screen: 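Find knockdowns that reproduce the expression shifts seen after KSR1 loss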 (primary screen)
Cells: human HCT116 colon cancer cells
Reagents: siRNA pool against human genes, 50 nM
Detection: 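Log2 levels of six mRNAs (branched-DNA multiplex), adjusted by two reference genes and the non-targeting median, then scored against the average KSR1 knockdown pattern as Pearson r and euclidean distance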
Reading the numbers: mean correlation with KSR1 profile and KSR1 correlation: higher = expression change more like KSR1 knockdown; mean distance from KSR1 profile: higher = expression change less like KSR1 knockdown
The deposit covers about 14,000 reagents; below is a random part of them. 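Higher correlation or smaller distance means closer resemblance to KSR1 loss; control wells, including KSR1 knockdowns, recur on many plates.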 Not given: the time to read-out.

target | mean correlation with KSR1 profile | mean distance from KSR1 profile | KSR1 correlation, replicate 1 | KSR1 correlation, replicate 2 | KSR1 correlation, replicate 3
TBC1D23 (GeneID 55773) | -0.112 | 1.71 | -0.387 | -0.17 | 0.177
UBA52 (GeneID 7311) | -0.321 | 2.49 | -0.0749 | -0.257 | -0.341
EPHA4 (GeneID 2043) | 0.258 | 2.34 | 0.423 | 0.224 | -0.0943
ZNF587 (GeneID 84914) | -0.0851 | 2.26 | -0.162 | -0.0797 | -0.181
MAP3K3 (GeneID 4215) | 0.223 | 2 | 0.599 | -0.0433 | 0.268
USP24 (GeneID 23358) | -0.49 | 1.81 | -0.283 | -0.657 | -0.606
SCARF1 (GeneID 8578) | 0.432 | 1.28 | 0.52 | 0.21 | 0.512
KCNJ14 (GeneID 3770) | -0.442 | 2.15 | -0.474 | -0.513 | -0.399
SLC17A7 (GeneID 57030) | -0.621 | 1.99 | -0.685 | -0.343 | -0.287
RNMT (GeneID 8731) | -0.0582 | 1.52 | -0.339 | -0.113 | 0.183
PAMR1 (GeneID 25891) | -0.0937 | 1.89 | -0.0117 | -0.133 | -0.164
TRAPPC1 (GeneID 58485) | -0.716 | 4.89 | -0.515 | -0.703 | -0.372
RNPEPL1 (GeneID 57140) | -0.576 | 1.62 | -0.421 | -0.66 | -0.586
DAAM1 (GeneID 23002) | 0.249 | 2 | 0.125 | 0.342 | 0.0553
TFF1 (GeneID 7031) | -0.527 | 2.93 | -0.372 | -0.624 | -0.405
PCSK5 (GeneID 5125) | -0.308 | 3.55 | -0.264 | -0.0254 | -0.44
PNMA3 (GeneID 29944) | -0.017 | 1.96 | -0.13 | -0.316 | -0.331
GFRA4 (GeneID 64096) | 0.151 | 3.13 | 0.113 | 0.176 | 0.0622
TAAR8 (GeneID 83551) | 0.909 | 0.637 | 0.868 | 0.924 | 0.826
ABCC6 (GeneID 368) | -0.663 | 2.04 | -0.454 | -0.784 | -0.578
TP53I11 (GeneID 9537) | -0.139 | 2.38 | -0.108 | -0.127 | -0.281
TMEM209 (GeneID 84928) | 0.75 | 1.13 | 0.812 | 0.316 | 0.739
TSPAN5 (GeneID 10098) | -0.532 | 2.87 | -0.347 | -0.638 | -0.546
HDAC2 (GeneID 3066) | 0.0368 | 1.63 | 0.198 | 0.0867 | -0.127
IL17D (GeneID 53342) | -0.0652 | 1.51 | 0.0469 | 0.0983 | -0.177
CD1B (GeneID 910) | -0.78 | 4.19 | -0.708 | -0.783 | -0.723
OTP (GeneID 23440) | 0.0733 | 2.62 | -0.036 | -0.0342 | 0.143
PLEKHH3 (GeneID 79990) | 0.577 | 1.28 | 0.491 | 0.576 | 0.502
COPA (GeneID 1314) | -0.33 | 6.23 | -0.254 | -0.267 | -0.41
COL16A1 (GeneID 1307) | 0.167 | 1.58 | 0.161 | 0.168 | 0.211
MFAP2 (GeneID 4237) | 0.105 | 1.49 | -0.0843 | 0.00696 | 0.239
GYS1 (GeneID 2997) | 0.513 | 1.11 | 0.55 | 0.427 | 0.526
ALDH1L1 (GeneID 10840) | -0.0247 | 3.05 | 0.196 | -0.0587 | -0.123
BIRC6 (GeneID 57448) | 0.584 | 1.05 | 0.541 | 0.695 | 0.384

Limited to “mean distance from KSR1 profile”, for 4 of the entries above:
PCSK5 (GeneID 5125) = 3.55
PNMA3 (GeneID 29944) = 1.96
GFRA4 (GeneID 64096) = 3.13
TAAR8 (GeneID 83551) = 0.637
